Measurements taken from patent US20170128596A1, “Peptide-Based Compounds and Their Uses for Tumor Imaging and Targeting” (Klinikum rechts der lsar der Technischen Universitaet …, priority 2014, published 2017).
These are yes or no findings as the source states them, for the method shown. Some entries that bind do so weakly or less than the wild type.

The chains behind the UniProt entries cited, without tags or fusion partners. Residues count along the entry.
UniProt Q61696, residues 2-641: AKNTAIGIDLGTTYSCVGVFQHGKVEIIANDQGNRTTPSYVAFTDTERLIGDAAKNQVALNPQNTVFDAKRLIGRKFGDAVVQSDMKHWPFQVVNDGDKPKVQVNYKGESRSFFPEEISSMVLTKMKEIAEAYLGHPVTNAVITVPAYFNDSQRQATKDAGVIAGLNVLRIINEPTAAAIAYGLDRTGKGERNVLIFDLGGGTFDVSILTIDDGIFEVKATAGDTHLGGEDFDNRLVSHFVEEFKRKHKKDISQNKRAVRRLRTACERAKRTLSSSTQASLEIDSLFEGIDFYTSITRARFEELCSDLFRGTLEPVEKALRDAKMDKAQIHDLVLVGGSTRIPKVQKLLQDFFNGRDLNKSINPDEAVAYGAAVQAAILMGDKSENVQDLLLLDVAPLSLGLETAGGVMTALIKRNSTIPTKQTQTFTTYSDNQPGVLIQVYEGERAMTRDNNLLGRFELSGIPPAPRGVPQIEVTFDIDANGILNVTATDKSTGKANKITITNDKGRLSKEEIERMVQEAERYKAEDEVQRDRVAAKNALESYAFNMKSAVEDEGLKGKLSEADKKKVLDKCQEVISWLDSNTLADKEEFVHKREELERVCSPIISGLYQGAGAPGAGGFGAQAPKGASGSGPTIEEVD

How the values were obtained:
[1] = biological target: membrane-bound Heat shock protein 70 (Hsp70) on murine tumor cells (mouse) (UniProt Q61696); test: flow cytometry on viable cells from solid murine tumors
[2] = biological target: membrane-bound Heat shock protein 70 (Hsp70) on murine tumor cells (mouse) (UniProt Q61696); test: in vivo fluorescence imaging, Hsp70 wt versus Hsp70-/- (CRISPR/Cas9 ko) 4T1 mouse mammary tumors in the same mouse, 24 h after injection

binding [2] | Binder | binding [1]
– | TKDNNLLGRFELSG (carboxyfluorescein label, position of attachment not stated) [carboxyfluorescein-conjugated Hsp70-tumor cell penetrating peptide TPP (TPP[CF])] | binds
binds | TKDNNLLGRFELSG (fluorescent label '680', identity and position not stated) [TPP[680]] | –
